Results are given in words; binding and its absence hold for the method and conditions named. In cells and extracts the contact can be indirect. Binding can be weak; no strength is given.
Tests used:
[1] = target: plasmid-borne gp37 with a histidine tag attached to the C-terminus (wild type) (SIRV2); assay: pull-down
[2] = target: catalytically dead gp37 H47A with a C-terminal histidine tag (SIRV2); assay: pull-down

B1: host protein lysine methyltransferase SiL_1451 (endogenous) (enzyme, UniProt F0NBH8 1-161)
chain: MSYVPHVPYVPTPEKVVRRMLEIAKVSQDDIVYDLGCGDGRIIITAAKDFNVKKAVGVEINDERIREALANIEKNGVTGRASIVKGNFFEVDISEATVVTMFLLTNVNEMLKPKLEKELKPGTRVVSHEFEIRGWNPKEVIKVEDGNMNHTVYLYVIGEHK
[1]
  binding: binds
[2]
  binding: binds

Source: paper doi:10.1101/2023.01.10.523387
